This passage reports binding results from article PMC6098079.

By UniProt entry, the sequences of proteins in these tests, tags left out. Residues count along the entry.
UniProt P15116, residues 160-906: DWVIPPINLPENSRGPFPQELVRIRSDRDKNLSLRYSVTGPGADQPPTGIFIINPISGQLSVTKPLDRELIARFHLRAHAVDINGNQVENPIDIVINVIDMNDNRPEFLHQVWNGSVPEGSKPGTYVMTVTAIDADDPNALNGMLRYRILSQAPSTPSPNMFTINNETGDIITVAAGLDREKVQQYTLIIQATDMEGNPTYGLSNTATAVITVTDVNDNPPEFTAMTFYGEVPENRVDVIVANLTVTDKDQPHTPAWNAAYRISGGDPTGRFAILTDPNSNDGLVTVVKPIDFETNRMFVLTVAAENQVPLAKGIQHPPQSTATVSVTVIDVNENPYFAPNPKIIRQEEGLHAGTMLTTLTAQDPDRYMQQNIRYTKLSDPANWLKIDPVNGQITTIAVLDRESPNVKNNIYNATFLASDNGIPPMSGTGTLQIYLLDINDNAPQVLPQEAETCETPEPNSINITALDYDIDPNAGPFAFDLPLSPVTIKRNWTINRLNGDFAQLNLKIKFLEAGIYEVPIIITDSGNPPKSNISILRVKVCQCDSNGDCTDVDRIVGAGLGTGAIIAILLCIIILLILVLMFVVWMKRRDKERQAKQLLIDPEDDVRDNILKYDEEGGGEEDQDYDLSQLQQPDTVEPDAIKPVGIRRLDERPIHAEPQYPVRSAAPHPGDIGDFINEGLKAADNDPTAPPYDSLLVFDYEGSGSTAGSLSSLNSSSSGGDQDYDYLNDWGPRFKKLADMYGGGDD

Results are given in words; binding and its absence hold for the method and conditions named. In cells and extracts the contact can be indirect. Some binding calls cover weakened binding; strength is not graded here.

The target in this assay is N-cadherin (mouse (endogenous in C2C12)) (UniProt P15116). The assay is described as follows: co-IP; C2C12 myoblast lysates, cells with or without cAng1 stimulation; immunoprecipitation with immunocruz, immunoblot.

B1: p120-catenin (protein, UniProt P30999 1-938)
chain: MDDSEVESTASILASVKEQEAQFEKLTRALEEERRHVSAQLERVRVSPQDANSLMANGTLTRRHQNGRFVGDADLERQKFSDLKLNGPQDHNHLLYSTIPRMQEPGQIVETYTEEDPEGAMSVVSVETTDDGTTRRTETTVKKVVKTMTTRTVQPVPMGPDGLPVDASAVSNNYIQTLGRDFRKNGNGGPGPYVGQAGTATLPRNFHYPPDGYGRHYEDGYPGGSDNYGSLSRVTRIEERYRPSMEGYRAPSRQDVYGPQPQVRVGGSSVDLHRFHPEPYGLEDDQRSMGYDDLDYGMMSDYGTARRTGTPSDPRRRLRSYEDMIGEEVPPDQYYWAPLAQHERGSLASLDSLRKGMPPPSNWRQPELPEVIAMLGFRLDAVKSNAAAYLQHLCYRNDKVKTDVRKLKGIPILVGLLDHPKKEVHLGACGALKNISFGRDQDNKIAIKNCDGVPALVRLLRKARDMDLTEVITGTLWNLSSHDSIKMEIVDHALHALTDEVIIPHSGWEREPNEDCKPRHIEWESVLTNTAGCLRNVSSERSEARRKLRECDGLVDALIFIVQAEIGQKDSDSKLVENCVCLLRNLSYQVHREIPQAERYQEALPTVANSTGPHAASCFGAKKGKDEWFSRGKKPTEDPANDTVDFPKRTSPARGYELLFQPEVVRIYISLLKESKTPAILEASAGAIQNLCAGRWTYGRYIRSALRQEKALSAIAELLTSEHERVVKAASGALRNLAVDARNKELIGKHAIPNLVKNLPGGQQNSSWNFSEDTVVSILNTINEVIAENLEAAKKLRETQGIEKLVLINKSGNRSEKEVRAAALVLQTIWGYKELRKPLEKEGWKKSDFQVNLNNASRSQSSHSYDDSTLPLIDRNQKSDKKPDREEIPMSNMGSNTKSLDNNYSTLNERGDHNRTLDRSGDLGDMEPLKGAPLMQKI
For the molecule B1, the binding entry is on record as “binds”.
